# Among all 310,000 compounds or so, about 17,000 (5.5%) were called active. This list was built around the results that the source calls inconclusive (neither active nor inactive); the mix of calls is not that of the screen. The call rests on the fitted dose curve; in most records, active means well fitted inhibition curve with a large enough effect; inconclusive means small, poorly fitted or top-dose-only effect, or effect the other way; inactive means no such curve, though single readings can be large or run the other way. Potencies beside an inconclusive call are fits to weak or partial responses and may not hold up.
# Sequences of proteins named here, by UniProt entry; tags and fusion partners are left off. A change or cut given only in a name is not applied to a line headed by its entry.
# UniProt P51450: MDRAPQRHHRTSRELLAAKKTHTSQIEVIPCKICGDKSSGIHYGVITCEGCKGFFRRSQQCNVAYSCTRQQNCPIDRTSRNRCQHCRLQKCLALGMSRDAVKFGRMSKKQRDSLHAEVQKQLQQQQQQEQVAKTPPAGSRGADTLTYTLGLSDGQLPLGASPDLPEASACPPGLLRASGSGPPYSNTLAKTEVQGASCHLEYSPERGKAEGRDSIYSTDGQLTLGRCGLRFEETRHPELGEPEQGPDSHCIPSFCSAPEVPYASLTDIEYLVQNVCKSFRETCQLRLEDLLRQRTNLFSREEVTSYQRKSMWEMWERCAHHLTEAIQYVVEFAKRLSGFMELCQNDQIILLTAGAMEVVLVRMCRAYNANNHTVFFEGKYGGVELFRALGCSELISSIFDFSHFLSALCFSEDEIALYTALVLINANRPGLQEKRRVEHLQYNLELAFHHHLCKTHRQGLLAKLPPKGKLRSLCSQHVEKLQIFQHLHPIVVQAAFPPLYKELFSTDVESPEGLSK
# Target: Nuclear receptor ROR-gamma (Mus musculus) (UniProt P51450)
# Test: qHTS for inhibitors of ROR gamma transcriptional activity; further: nearly all actives have a fitted effect of over 60% in size
# Settings: Drosophila S2 Gal4-RORgamma UAS-luciferase reporter, 20 h; activity change, negative = inhibition: at 53.6 µM (top of the series)
# How it was run: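 Read-out: Photinus luciferase luminescence; inhibitors lower reporter signal. Insect Schneider cells with Gal4-ROR gamma fusion under metallothionein promoter, UAS reporter; 700 uM final copper sulfate induction, 20 hr, ambient temperature.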
# On the % scale 0 is the no-effect control and ±100 the full control effect; potency means the concentration at half of the fitted maximal effect.
Compound,Potency,"activity change, negative = inhibition"
COc1cccc(/C=C2/SC(=S)N(CCCC(=O)Nc3ccc(O)cc3)C2=O)c1,active: 0.355 µM,–
COc1ccc(OCC(O)CN2CCCCC2)cc1 (stereo not drawn),inactive,–
CCCc1[nH]n(-c2nc3ccccc3s2)c(=O)c1C=NCCN1CCOCC1,"inconclusive: 20 µM [inhibitor, single point]",–
O=C(CNC(=O)c1ccccc1)OCC(=O)N1c2ccccc2Sc2ccccc21,"inconclusive: 35.5 µM [activator, single point]",–
Cc1cccc(CN2CCc3c(OCC(=O)N4CCCc5ccccc54)cccc3C2=O)c1,"inconclusive: 35.5 µM [activator, single point]",–
COc1cccc2c1N(C)C(=O)CC21C=CC(=O)C=C1,"inconclusive: 17.8 µM [inhibitor, single point]",–
CCNC(=S)N/N=C/c1cn(Cc2ccc(F)cc2)c2ccccc12,active: 1.12 µM,–
O=S(=O)(c1cccc(C(F)(F)F)c1)N1CCC(c2nc3ccccc3[nH]2)CC1,inactive,–
CC1CCc2[nH]c3ccc(C(=O)N(C)CC(=O)Nc4ccc(F)cc4)cc3c2C1 (stereo not drawn),"inconclusive: 17.8 µM [activator, single point]",–
CCOc1cc(-c2nc(-c3ccccc3)c(-c3cc([N+](=O)[O-])ccc3C)[nH]2)ccc1O,"inconclusive: 12.6 µM [activator, partial curve]",–
Cc1[nH]nc2ncc(C(=O)c3cc(F)ccc3O)cc12,inactive,–
CC1CN(c2oc(COc3ccc(Cl)cc3Cl)nc2C#N)CC(C)O1 (stereo not drawn),"inconclusive: 0.0891 µM [inhibitor, full curve, poor fit]",–
CCn1c(C(=O)NCCCc2ccccc2)cc2sccc21,"inconclusive: 15.8 µM [activator, single point]",–
CSc1cccc(CNC(=O)C2CCC(=O)N(CCCN3CCCC3=O)C2)c1 (stereo not drawn),inactive,–
O=C(NC1CCCC1)c1cc2c(ccc3ccccc32)o1,inactive,–
O=C(O)c1ccc(N/N=C/c2ccc(-c3cc(Cl)ccc3Cl)o2)cc1,"inconclusive: 0.1 µM [inhibitor, full curve, poor fit]",–
S=c1[nH]nc(-c2cccnc2)n1Cc1ccccc1,"inconclusive: 25.1 µM [inhibitor, single point]",–
COc1cc(OC)c(NC2=CC(=O)C(=O)c3ccccc32)cc1Cl,"inconclusive: 15.8 µM [inhibitor, single point]",–
O=C(Nc1ccc2c(c1)OCO2)N1CCOCC1,"inconclusive: 25.1 µM [activator, single point]",–
N#CCCn1nc(-c2ccc(Cl)cc2)cc1Nc1ccccc1NC(=O)C(F)(F)F,"inconclusive: 35.5 µM [activator, single point]",–
CCOC(=O)c1c(NC(=O)C(C)S(=O)(=O)c2cn(CC)c3ccccc23)sc2c1CCCC2 (stereo not drawn),"inconclusive: 15.8 µM [activator, single point]",–
Cc1ccc(OC(C)C(=O)N(Cc2cccs2)C2CCS(=O)(=O)C2)cc1C (stereo not drawn),inactive,–
COc1ccccc1C(=O)NCC(=O)N/N=C/c1cc(Br)ccc1OC(=O)/C=C\c1ccco1,active: 3.55 µM,–

# Three records picked at random from those above, as already listed:
Compound,Potency,"activity change, negative = inhibition"
COc1ccc(OCC(O)CN2CCCCC2)cc1 (stereo not drawn),inactive,–
COc1cc(OC)c(NC2=CC(=O)C(=O)c3ccccc32)cc1Cl,"inconclusive: 15.8 µM [inhibitor, single point]",–
O=S(=O)(c1cccc(C(F)(F)F)c1)N1CCC(c2nc3ccccc3[nH]2)CC1,inactive,–

# More structures.

Compound,Potency,"activity change, negative = inhibition"
COCCn1c(=O)c(-c2cccs2)nc2cnc(Oc3cccc(Cl)c3)nc21,"inconclusive: 35.5 µM [activator, single point]",–
Cc1ccc(Cn2c(C(C)Nc3nc(-c4ccc(C)cc4)cs3)nc3cc(Cl)c(Cl)cc32)cc1 (stereo not drawn),active: 11.2 µM,–
Cc1ccc2nc(Cl)c(CNCc3ccccc3)cc2c1,"inconclusive: 10 µM [activator, partial curve]",–
O=C1Nc2cc(Cl)c(Cl)cc2N(O)N1c1ccccc1,"inconclusive: 0.141 µM [inhibitor, full curve, poor fit]",–
O=C(c1ccc2c(c1)OCO2)C1CCCN(C(=O)c2cnn(Cc3ccccc3)c2)C1 (stereo not drawn),"inconclusive: 12.6 µM [activator, partial curve]",–
CCOc1ccc(Oc2nc(N(CC)CC)nc(N3CCOCC3)n2)nn1,"inconclusive: 15.8 µM [inhibitor, partial curve, poor fit]",–
Cc1cccc(C)c1Nc1c(-c2ccsc2)nc2ncccn12,"inconclusive: 12.6 µM [activator, partial curve]",–
O=c1c2cc(N3CCOCC3)ccc2[nH]c(=S)n1Cc1ccccc1Cl,"inconclusive: 0.398 µM [inhibitor, full curve, poor fit]",–
O=C(Nc1ccc2c(c1)OCO2)c1cccc(S(=O)(=O)N2CCCC2)c1,"inconclusive: 35.5 µM [activator, single point]",–
O=C(NC1=NCCS1)c1cc(-c2ccc(-c3ccccc3)cc2)nc2ccccc12,active: 3.55 µM,–
C[C@@H]1[C@H](C)CC[C@@]2(C(=O)O[C@H]3O[C@@H](CO[C@H]4O[C@@H](CO)[C@@H](O[C@H]5O[C@@H](C)[C@@H](O)[C@@H](O)[C@@H]5O)[C@@H](O)[C@@H]4O)[C@@H](O)[C@@H](O)[C@@H]3O)CC[C@]3(C)C(=CC[C@H]4[C@@]5(C)C[C@@H](O)[C@@H](O)[C@](C)(CO)[C@@H]5CC[C@@]43C)[C@@H]12,inactive,–
Cc1cccc(C(=O)NC(=S)NNC(=O)c2ccc(Cl)cc2)c1,active: 10 µM,–
COc1ccc2[nH]cc(/C=C(/C#N)S(=O)(=O)c3ccccc3)c2c1,active: 7.08 µM,–
COc1ccc(S(=O)(=O)N(CC(=O)NC2CC3CCC2C3)c2ccccc2OC)cc1 (stereo not drawn),"inconclusive: 31.6 µM [activator, single point]",–
OCc1ccnc2c(O)cccc12,inactive,–
Cc1sc2nc(CN(C(=O)NCc3ccccc3)C3CCCC3)[nH]c(=O)c2c1C,active: 4.47 µM,–
CCOC(=O)N1CCC(N(CCCOC)C(=O)Nc2ccc(CC)cc2)CC1,"inconclusive: 11.2 µM [activator, partial curve, poor fit]",–
O=C(CC1Nc2ccccc2NC1=O)Nc1ccccc1 (stereo not drawn),"inconclusive: 35.5 µM [inhibitor, single point]",–
O=C1CCCN1CCC12CC3CC(CC(C3)C1)C2,"inconclusive: 35.5 µM [activator, single point]",–
CCOC(=O)N1CCN(C2CCCN(C(=O)c3cccc(N(C)C)c3)C2)CC1 (stereo not drawn),inactive,–
CSC(=Nc1ccccc1)C(C#N)c1nc2ccccc2[nH]1 (stereo not drawn),active: 5.62 µM,–
COc1ccc(NC(=O)C2CCN(S(=O)(=O)c3ccc(N4CCCC4=O)cc3)CC2)c(OC)c1,"inconclusive: 17.8 µM [activator, single point]",–
CN(C)S(=O)(=O)c1ccc(N2CCCC2)c(C(=O)Nc2nc3ccccc3s2)c1,"inconclusive: 12.6 µM [activator, partial curve]",–

Compound,Potency,"activity change, negative = inhibition"
O=C(/C=C\c1ccco1)Nc1nc(-c2ccccc2)cs1,"inconclusive: 0.501 µM [activator, full curve, poor fit]",–
S=C(NCc1ccccc1)NNc1ccccc1,active: 1.41 µM,–
Cc1ccc(/C=c2\sc3nc(-c4ccco4)nn3c2=O)o1,"inconclusive: 15.8 µM [inhibitor, single point]",–
O=[N+]([O-])c1ccc(O)c2cccnc12,"inconclusive: 22.4 µM [inhibitor, single point]",–
CCOc1ccc(NC(=O)Nc2cc(C(=O)O)ccc2N2CC3CC(C2)c2cccc(=O)n2C3)cc1 (stereo not drawn),"inconclusive: 6.31 µM [inhibitor, single point]",–
Cc1ccc(-n2c(SC3CCOC3=O)nc3ccccc3c2=O)cc1 (stereo not drawn),"inconclusive: 7.08 µM [activator, full curve, poor fit]",–
COCCCNC(=O)c1ccc2c(=O)n(C3CCCC3)c(=S)[nH]c2c1,active: 14.1 µM,–
O=C(COc1ccc(Br)cc1)N1CCc2ccccc2C1,"inconclusive: 28.2 µM [activator, single point]",–
CCc1ccc(OCC(=O)NNC(=S)NC(=O)C2CC2)c(Br)c1,"inconclusive: 3.16 µM [inhibitor, partial curve]",–
Cc1ccc(-c2c(C(=O)N/N=C/c3sccc3C)nnn2-c2nonc2N)cc1,active: 4.47 µM,–
S=c1nc[nH]c2c1ncn2C1CCCC1,"inconclusive: 10 µM [inhibitor, partial curve]",–
Clc1cccc(-c2cc3nc4c(c(NCc5ccco5)n3n2)CCCC4)c1,"inconclusive: 28.2 µM [inhibitor, single point]",–
C=CCn1c(COc2ccccc2OC)nc2ccccc21,"inconclusive: 12.6 µM [inhibitor, single point]",–
CC(C)(C)OC(=O)N1CCC[C@H]1C(=O)N/N=C/c1cccc2cccnc12,"inconclusive: 14.1 µM [inhibitor, single point]",–
Cc1cc(C)cc(OCC(=O)NCC2CCCO2)c1 (stereo not drawn),"inconclusive: 11.2 µM [inhibitor, partial curve]",–
COc1ccc(NC(=O)c2ccc(C)cc2)cc1,–,inactive: -11.1% [at 1.91 µM]
Fc1ccc(/C=N/Nc2ccccn2)cc1,"inconclusive: 35.5 µM [inhibitor, single point]",–
O=C(NNc1nc2ccccc2nc1C(F)(F)F)c1ccccc1,active: 7.94 µM,–
COc1ccc(OC)c(-n2c(-c3ccc(O)cc3O)n[nH]c2=S)c1,"inconclusive: 35.5 µM [inhibitor, single point]",–
CC(C)CCn1cnc2c(oc3nc4c(cc32)CCCC4)c1=O,active: 10 µM,–
Cc1ccccc1OCC1Cn2c(nc3c2c(=O)n(C)c(=O)n3C)O1 (stereo not drawn),"inconclusive: 11.2 µM [activator, partial curve]",–
Cc1cc(C(F)(F)F)nn1Cc1n[nH]c(=S)n1-c1ccc(Cl)cc1,"inconclusive: 20 µM [inhibitor, partial curve, poor fit]",–
